From the supplement of paper PMC10849652
The list shows a part of the results.

Chains of the proteins cited; added tags and fusions are not shown. Lines headed by an entry give the natural chain unless they say otherwise; changes in a name come on top.
UniProt O95155, whole entry, looked up: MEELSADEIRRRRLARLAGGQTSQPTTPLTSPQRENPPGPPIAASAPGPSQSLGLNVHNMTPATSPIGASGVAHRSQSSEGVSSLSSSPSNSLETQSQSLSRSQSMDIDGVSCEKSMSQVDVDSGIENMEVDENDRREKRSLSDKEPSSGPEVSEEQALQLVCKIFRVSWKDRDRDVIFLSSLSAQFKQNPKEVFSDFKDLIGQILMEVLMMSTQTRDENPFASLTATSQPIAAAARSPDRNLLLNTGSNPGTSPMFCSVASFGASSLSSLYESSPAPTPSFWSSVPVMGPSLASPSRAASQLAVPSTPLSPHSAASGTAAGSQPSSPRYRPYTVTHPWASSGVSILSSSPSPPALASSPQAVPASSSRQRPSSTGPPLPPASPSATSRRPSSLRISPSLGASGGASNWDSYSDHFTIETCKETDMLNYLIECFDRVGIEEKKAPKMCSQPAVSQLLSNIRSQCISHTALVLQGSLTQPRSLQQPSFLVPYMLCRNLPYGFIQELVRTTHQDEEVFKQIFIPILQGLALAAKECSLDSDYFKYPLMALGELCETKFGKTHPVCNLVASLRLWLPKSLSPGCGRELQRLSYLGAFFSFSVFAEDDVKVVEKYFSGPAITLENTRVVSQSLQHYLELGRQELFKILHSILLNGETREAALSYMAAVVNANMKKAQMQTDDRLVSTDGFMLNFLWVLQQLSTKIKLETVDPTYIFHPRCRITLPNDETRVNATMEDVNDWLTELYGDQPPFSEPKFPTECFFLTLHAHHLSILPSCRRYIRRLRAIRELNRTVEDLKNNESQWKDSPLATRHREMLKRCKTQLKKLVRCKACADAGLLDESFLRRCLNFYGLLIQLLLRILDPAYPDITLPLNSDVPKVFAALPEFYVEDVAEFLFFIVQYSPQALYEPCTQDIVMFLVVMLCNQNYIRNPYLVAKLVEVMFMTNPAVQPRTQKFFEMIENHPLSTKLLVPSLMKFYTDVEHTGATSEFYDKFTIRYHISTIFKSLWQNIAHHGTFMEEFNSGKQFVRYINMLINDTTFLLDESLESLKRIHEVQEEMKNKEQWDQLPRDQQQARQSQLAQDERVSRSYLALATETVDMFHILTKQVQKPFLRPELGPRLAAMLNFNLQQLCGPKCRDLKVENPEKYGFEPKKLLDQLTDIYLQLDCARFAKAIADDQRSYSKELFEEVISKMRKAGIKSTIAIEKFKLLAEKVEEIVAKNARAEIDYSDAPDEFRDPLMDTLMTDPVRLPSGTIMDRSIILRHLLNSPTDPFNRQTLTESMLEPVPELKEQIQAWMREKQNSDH
UniProt Q96CW5, whole entry, looked up: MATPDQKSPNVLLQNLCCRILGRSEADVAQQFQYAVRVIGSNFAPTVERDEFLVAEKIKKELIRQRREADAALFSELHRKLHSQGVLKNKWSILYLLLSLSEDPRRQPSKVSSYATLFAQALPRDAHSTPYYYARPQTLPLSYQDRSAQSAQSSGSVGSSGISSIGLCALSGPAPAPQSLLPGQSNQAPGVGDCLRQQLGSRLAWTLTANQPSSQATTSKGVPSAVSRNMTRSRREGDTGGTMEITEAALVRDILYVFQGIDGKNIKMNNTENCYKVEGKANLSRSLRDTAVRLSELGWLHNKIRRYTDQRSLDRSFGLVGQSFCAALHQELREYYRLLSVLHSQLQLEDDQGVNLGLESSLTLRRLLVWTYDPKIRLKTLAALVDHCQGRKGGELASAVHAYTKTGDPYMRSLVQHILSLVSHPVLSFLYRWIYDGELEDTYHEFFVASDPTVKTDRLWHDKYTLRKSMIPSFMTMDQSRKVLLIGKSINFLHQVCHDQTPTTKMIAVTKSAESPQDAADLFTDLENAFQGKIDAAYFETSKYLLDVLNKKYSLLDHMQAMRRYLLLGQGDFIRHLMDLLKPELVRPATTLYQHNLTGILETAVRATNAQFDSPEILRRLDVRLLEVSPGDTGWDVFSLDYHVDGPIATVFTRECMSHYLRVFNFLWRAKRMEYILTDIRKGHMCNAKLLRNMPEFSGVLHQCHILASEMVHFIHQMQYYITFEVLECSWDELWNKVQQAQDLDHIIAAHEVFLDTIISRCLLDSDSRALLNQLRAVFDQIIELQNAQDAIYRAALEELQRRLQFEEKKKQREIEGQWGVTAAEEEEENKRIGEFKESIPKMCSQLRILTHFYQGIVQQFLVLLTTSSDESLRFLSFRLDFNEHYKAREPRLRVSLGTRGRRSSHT
UniProt P07437, whole entry, looked up: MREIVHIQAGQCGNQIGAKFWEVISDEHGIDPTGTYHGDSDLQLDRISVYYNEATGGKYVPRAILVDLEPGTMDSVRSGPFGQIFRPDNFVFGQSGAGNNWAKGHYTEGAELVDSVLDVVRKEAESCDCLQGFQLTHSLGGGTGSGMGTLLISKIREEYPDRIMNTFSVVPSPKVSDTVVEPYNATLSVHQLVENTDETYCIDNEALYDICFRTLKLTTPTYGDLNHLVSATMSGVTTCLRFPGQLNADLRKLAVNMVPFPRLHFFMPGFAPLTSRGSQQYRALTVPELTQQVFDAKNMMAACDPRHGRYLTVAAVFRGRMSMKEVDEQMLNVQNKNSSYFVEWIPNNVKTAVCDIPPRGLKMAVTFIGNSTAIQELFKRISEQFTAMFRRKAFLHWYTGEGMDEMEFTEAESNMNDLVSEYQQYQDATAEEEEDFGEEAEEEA
UniProt Q15819: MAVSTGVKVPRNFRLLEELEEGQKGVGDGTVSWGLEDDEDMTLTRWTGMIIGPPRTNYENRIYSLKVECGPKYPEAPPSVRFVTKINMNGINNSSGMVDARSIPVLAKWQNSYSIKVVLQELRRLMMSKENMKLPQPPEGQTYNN
UniProt Q04323: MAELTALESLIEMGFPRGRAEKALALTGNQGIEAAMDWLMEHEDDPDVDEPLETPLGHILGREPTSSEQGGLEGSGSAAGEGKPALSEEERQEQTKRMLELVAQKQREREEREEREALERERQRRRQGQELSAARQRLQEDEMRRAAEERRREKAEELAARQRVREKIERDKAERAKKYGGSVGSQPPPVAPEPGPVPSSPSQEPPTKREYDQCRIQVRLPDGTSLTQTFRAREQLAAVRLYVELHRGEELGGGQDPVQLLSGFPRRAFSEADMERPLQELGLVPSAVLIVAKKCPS
UniProt O14562: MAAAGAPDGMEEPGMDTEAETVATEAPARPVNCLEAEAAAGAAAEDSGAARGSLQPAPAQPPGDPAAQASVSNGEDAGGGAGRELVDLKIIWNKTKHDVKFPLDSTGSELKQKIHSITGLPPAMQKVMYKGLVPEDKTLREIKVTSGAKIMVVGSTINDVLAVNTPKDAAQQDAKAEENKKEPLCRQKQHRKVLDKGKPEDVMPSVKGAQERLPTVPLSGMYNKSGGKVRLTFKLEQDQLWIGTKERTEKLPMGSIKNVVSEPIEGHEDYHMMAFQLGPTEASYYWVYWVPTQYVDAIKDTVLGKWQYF
UniProt P51668: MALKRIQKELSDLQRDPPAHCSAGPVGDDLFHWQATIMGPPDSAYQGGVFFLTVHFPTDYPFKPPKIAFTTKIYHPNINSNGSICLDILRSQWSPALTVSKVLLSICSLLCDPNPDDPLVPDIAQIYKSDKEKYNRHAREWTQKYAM
UniProt Q9UHD9, whole entry, looked up: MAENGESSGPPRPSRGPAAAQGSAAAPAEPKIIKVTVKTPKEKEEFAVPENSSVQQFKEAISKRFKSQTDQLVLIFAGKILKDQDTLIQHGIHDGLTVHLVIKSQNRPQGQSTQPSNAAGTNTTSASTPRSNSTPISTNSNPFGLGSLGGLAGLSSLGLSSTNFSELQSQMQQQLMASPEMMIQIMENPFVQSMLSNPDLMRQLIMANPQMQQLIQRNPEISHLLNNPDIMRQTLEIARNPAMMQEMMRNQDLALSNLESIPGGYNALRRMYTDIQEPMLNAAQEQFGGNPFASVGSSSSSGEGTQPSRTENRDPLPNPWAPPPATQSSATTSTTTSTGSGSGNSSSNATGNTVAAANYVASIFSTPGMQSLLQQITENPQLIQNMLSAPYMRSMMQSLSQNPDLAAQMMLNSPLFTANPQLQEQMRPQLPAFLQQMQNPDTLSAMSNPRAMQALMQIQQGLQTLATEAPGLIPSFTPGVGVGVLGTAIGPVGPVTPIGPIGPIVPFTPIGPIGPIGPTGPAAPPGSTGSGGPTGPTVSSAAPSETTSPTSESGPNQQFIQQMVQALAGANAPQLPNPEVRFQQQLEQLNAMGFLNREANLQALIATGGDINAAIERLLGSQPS
UniProt Q01081: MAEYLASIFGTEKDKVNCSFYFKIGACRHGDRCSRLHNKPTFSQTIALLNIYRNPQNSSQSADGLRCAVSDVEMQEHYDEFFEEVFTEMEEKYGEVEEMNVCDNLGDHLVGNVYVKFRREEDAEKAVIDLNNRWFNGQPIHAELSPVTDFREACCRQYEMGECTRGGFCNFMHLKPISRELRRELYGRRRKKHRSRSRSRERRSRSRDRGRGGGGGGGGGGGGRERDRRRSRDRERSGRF
UniProt Q13509, whole entry, looked up: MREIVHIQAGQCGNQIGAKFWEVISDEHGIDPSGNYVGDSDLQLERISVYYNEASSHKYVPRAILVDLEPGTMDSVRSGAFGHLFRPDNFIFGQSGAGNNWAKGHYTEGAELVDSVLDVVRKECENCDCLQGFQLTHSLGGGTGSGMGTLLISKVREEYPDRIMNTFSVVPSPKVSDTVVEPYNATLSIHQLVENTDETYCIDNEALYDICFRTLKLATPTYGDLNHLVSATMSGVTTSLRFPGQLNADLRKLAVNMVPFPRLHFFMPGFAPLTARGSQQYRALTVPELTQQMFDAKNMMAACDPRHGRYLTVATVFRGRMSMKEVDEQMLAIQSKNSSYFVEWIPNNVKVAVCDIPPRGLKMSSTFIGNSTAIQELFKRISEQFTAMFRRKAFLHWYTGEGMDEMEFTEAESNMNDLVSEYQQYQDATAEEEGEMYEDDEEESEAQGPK
UniProt Q969T4: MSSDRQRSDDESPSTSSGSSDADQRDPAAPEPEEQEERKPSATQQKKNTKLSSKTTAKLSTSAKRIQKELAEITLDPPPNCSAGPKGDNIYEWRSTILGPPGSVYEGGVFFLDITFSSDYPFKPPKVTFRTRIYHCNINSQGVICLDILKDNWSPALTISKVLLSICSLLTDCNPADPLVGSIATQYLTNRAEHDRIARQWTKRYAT
UniProt P0CG48, whole entry, looked up: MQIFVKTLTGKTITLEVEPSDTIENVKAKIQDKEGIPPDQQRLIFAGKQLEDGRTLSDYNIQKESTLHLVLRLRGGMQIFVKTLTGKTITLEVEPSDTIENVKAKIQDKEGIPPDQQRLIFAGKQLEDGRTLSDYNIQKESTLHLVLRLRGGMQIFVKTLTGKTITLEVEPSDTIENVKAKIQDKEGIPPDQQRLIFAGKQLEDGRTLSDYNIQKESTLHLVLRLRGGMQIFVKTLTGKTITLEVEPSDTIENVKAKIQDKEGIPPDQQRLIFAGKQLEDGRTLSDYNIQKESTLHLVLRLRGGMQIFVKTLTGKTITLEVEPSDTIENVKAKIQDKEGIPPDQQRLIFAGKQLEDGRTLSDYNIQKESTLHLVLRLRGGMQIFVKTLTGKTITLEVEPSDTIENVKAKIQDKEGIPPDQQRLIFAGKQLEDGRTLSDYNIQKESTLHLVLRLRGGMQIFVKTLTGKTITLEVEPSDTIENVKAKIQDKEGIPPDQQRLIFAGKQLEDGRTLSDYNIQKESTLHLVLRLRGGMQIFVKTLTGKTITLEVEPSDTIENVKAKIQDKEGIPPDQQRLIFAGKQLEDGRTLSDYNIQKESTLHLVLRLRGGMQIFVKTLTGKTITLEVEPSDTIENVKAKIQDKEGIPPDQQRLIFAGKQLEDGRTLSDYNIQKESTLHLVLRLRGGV
UniProt P68036, whole entry, looked up: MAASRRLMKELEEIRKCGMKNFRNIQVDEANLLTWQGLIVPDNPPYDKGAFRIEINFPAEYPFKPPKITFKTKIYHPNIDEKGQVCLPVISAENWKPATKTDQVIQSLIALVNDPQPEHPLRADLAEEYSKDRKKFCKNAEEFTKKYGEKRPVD
UniProt Q712K3: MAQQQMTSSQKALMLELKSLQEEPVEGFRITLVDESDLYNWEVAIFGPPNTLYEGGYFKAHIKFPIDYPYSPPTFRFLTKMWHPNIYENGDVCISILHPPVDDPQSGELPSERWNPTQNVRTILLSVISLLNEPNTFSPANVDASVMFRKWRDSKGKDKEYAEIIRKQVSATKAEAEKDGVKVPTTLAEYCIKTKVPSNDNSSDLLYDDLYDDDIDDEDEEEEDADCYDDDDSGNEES
UniProt P23258, whole entry, looked up: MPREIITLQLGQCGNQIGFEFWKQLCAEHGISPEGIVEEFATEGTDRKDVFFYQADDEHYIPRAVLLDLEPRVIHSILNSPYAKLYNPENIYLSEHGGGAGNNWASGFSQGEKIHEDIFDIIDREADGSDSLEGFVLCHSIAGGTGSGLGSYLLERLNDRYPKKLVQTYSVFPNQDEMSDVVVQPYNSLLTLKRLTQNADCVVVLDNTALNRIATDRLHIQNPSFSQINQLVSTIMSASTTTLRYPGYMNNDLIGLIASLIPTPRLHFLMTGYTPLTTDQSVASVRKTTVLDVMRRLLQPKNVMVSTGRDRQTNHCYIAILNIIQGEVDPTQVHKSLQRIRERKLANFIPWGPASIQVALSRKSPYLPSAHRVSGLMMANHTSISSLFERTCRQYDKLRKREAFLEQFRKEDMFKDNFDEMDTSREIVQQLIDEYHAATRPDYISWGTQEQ

Each target was assayed with CC1=C(C(CC(=O)N1)C2=CC=C(C=C2)C(F)(F)F)C(=O)NC3=C(C=C4C(=C3)C=NN4)F (assay: log2 fold change, soluble protein after heating vs DMSO (PISA); higher = thermal stabilisation; K562 lysate, 10 uM; active = over 0.2 and 3.5 SD of the protein, either way, in both replicates (recomputed)).
In short: (§1)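 Pellets of K562 cells were dounce-homogenised in PBS pH 7.4 with 1 mM MgCl2, and the crude extract was held at 1 mg/mL protein for a 30 min treatment with 10 μM compound. Aliquots were heated for 3 min over 48°C-58°C and pooled before NP-40 was added to 0.5% at 4°C. The supernatant from 21,000xg for 90 min was quantified by TMTpro 16plex LC-MS/MS with channel sums equalised. Values are reported from duplicates as log-two fold change in thermal stability relative to solvent controls.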

Target | log2 fold change
UBE4B isoform 4 (UniProt O95155) | inactive: -0.018
TUBGCP3 (UniProt Q96CW5) | inactive: 0.003
TUBB (UniProt P07437) | inactive: 0.049
UBE2V2 (UniProt Q15819) | inactive: -0.02
UBXN1 (UniProt Q04323) | inactive: -0.033
UBFD1 (UniProt O14562) | inactive: -0.027
UBE2D1 (UniProt P51668) | inactive: -0.03
UBQLN2 (UniProt Q9UHD9) | inactive: -0.014
TUFM (UniProt P49411) | inactive: -0.031
U2AF1 isoform 2 (UniProt Q01081) | inactive: 0.013
TUBB3 (UniProt Q13509) | inactive: 0.013
UBE2E3 (UniProt Q969T4) | inactive: -0.026
UBC (UniProt P0CG48) | inactive: -0.053

These targets were tested with CC1=C(C2=C(C=C1)C(=O)C3=CC=CC=C3N2CCCN)C in the same assay as above.
In short: as §1

Target | log2 fold change
TXN2 (UniProt Q99757) | inactive: 0.053
TWISTNB (UniProt Q3B726) | inactive: 0.007
UBE2L3 isoform 3 (UniProt P68036) | inactive: -0.002
UBE2R2 (UniProt Q712K3) | inactive: 0.009
TXNL4A (UniProt P83876) | inactive: 0.027
TXNRD1 (UniProt Q16881) | inactive: 0.005
UBE2Q1 (UniProt Q7Z7E8) | inactive: -0.014
TUBG1 (UniProt P23258) | inactive: -0.012
UBE2E1 (UniProt P51965) | inactive: -0.059
UCHL3 (UniProt P15374) | inactive: 0.049
TUBB1 (UniProt Q9H4B7) | inactive: 0.028
UBE2I (UniProt P63279) | inactive: 0.052
TXLNA (UniProt P40222) | inactive: 0.017
TTN isoform 12 (UniProt Q8WZ42) | inactive: -0.05
UBR2 isoform 4 (UniProt Q8IWV8) | inactive: -0.016
TUBGCP2 isoform 4 (UniProt Q9BSJ2) | inactive: -0.023
TXNRD2 (UniProt Q9NNW7) | inactive: -0.038
UAP1L1 (UniProt Q3KQV9) | inactive: 0.064

Target | log2 fold change
TUT4 (UniProt Q5TAX3) | inactive: -0.045
UCHL5 isoform 3 (UniProt Q9Y5K5) | inactive: 0.011
TTPAL (UniProt Q9BTX7) | inactive: 0.046
UBE2B (UniProt P63146) | inactive: -0.024
UBE4B isoform 4 (UniProt O95155) | inactive: 0
TUBGCP3 (UniProt Q96CW5) | inactive: -0.037
TUBB (UniProt P07437) | inactive: 0.003
UBE2V2 (UniProt Q15819) | inactive: 0.033
UBXN1 (UniProt Q04323) | inactive: -0.013
UBFD1 (UniProt O14562) | inactive: 0.012
UBE2D1 (UniProt P51668) | inactive: -0.007
UBQLN2 (UniProt Q9UHD9) | inactive: -0.014
TUFM (UniProt P49411) | inactive: 0.012
U2AF1 isoform 2 (UniProt Q01081) | inactive: 0.03
TUBB3 (UniProt Q13509) | inactive: 0.005
UBE2E3 (UniProt Q969T4) | inactive: -0.015
UBC (UniProt P0CG48) | inactive: -0.006

What follows are targets tested with CC1=C(C=C(C=C1)NC(=O)C2=CC(=CC=C2)C(C)(C)C#N)NC3=CC4=C(C=C3)N=CN(C4=O)C in the same assay as above.
In short: as §1

Target | log2 fold change
TXN2 (UniProt Q99757) | inactive: 0.024
TWISTNB (UniProt Q3B726) | inactive: -0.051
UBE2L3 isoform 3 (UniProt P68036) | inactive: 0
UBE2R2 (UniProt Q712K3) | inactive: -0.015
TXNL4A (UniProt P83876) | inactive: -0.002
TXNRD1 (UniProt Q16881) | inactive: 0.003
UBE2Q1 (UniProt Q7Z7E8) | inactive: 0.004
TUBG1 (UniProt P23258) | inactive: 0.003
UBE2E1 (UniProt P51965) | inactive: -0.208
UCHL3 (UniProt P15374) | inactive: -0.044
TUBB1 (UniProt Q9H4B7) | inactive: -0.036
UBE2I (UniProt P63279) | inactive: 0.055
TXLNA (UniProt P40222) | inactive: -0.026
TTN isoform 12 (UniProt Q8WZ42) | inactive: 0.123
UBR2 isoform 4 (UniProt Q8IWV8) | inactive: 0.02
TUBGCP2 isoform 4 (UniProt Q9BSJ2) | inactive: 0.035
TXNRD2 (UniProt Q9NNW7) | inactive: -0.014
UAP1L1 (UniProt Q3KQV9) | inactive: -0.047

Target | log2 fold change
TUT4 (UniProt Q5TAX3) | inactive: -0.165
UCHL5 isoform 3 (UniProt Q9Y5K5) | inactive: -0.029
TTPAL (UniProt Q9BTX7) | inactive: 0.015
UBE2B (UniProt P63146) | inactive: -0.02
UBE4B isoform 4 (UniProt O95155) | inactive: 0.01
TUBGCP3 (UniProt Q96CW5) | inactive: 0.004
TUBB (UniProt P07437) | inactive: 0.007
UBE2V2 (UniProt Q15819) | inactive: -0.004
UBXN1 (UniProt Q04323) | inactive: -0.006
UBFD1 (UniProt O14562) | inactive: 0.048
UBE2D1 (UniProt P51668) | inactive: -0.002
UBQLN2 (UniProt Q9UHD9) | inactive: 0.035
TUFM (UniProt P49411) | inactive: -0.005
U2AF1 isoform 2 (UniProt Q01081) | inactive: 0.099
TUBB3 (UniProt Q13509) | inactive: -0.007
UBE2E3 (UniProt Q969T4) | inactive: 0.034
UBC (UniProt P0CG48) | inactive: 0.021
